Earlier results, collected in patent publication US8318954B2, “Cleavable carnitine compound” (Nou Life Sciences, Inc., priority 2006, dated 2012).
For at least one compound, name, drawing or mass did not settle the structure.

Tested on: rats
Details: 10 mg/kg cisplatin s.c. seven days, oral 300 mg/kg acetyl L-carnitine, 300 mg/kg carnitine mixture, 50 mg/kg α-lipoic acid; cited from earlier work

For `CC(=O)O[C@H](CC(=O)[O-])C[N+](C)(C)C` [Acetyl-L-carnitine], the Equilibrium time is listed as 9.5 ± 0/6 sec.
